This note sets out measurements from publication PMC11042806.

This experiment concerns the target T1, Foxp3 (untagged), Q99JB6.
T1 chain: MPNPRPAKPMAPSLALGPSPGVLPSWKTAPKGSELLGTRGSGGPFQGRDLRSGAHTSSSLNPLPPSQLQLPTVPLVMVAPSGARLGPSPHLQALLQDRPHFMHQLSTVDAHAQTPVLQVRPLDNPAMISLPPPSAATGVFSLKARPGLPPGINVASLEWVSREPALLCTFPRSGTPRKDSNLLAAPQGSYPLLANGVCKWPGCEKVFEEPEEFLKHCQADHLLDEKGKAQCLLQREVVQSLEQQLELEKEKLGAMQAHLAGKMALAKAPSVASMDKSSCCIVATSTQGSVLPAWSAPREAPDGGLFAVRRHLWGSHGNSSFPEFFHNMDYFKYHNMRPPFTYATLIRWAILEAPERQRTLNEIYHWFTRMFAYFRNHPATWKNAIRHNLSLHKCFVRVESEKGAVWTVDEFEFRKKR
Kind of experiment: co-IP; HEK293T cells co-transfected with Flag-Ik1 and untagged Foxp3, lysate after 48 hr; immunoprecipitation (legend: Foxp3-immunoprecipitated extracts; methods: Flag IP kit), immunoblot for Foxp3 and FLAG. To be noted: remark: other sources report otherwise. (In western blotting, separated proteins are transferred to a membrane and probed.)

No constants are given. Whether binding was seen depends on the method and setting. Binding seen in cells or lysates may run through a third protein. Some binding calls cover weakened binding; strength is not graded here. Where a sequence is shown, tags or fusion partners need not be part of it.

B1: FLAG-tagged full-length Ikaros (Ik1), Q03267 1-517 (protein)
chain: MDVDEGQDMSQVSGKESPPVSDTPDEGDEPMPVPEDLSTTSGAQQNSKSDRGMGSNVKVETQSDEENGRACEMNGEECAEDLRMLDASGEKMNGSHRDQGSSALSGVGGIRLPNGKLKCDICGIVCIGPNVLMVHKRSHTERPFQCNQCGASFTQKGNLLRHIKLHSGEKPFKCHLCNYACRRRDALTGHLRTHSVGKPHKCGYCGRSYKQRSSLEEHKERCHNYLESMGLPGVCPVIKEETNHNEMAEDLCKIGAERSLVLDRLASNVAKRKSSMPQKFLGDKCLSDMPYDSANYEKEDMMTSHVMDQAINNAINYLGAESLRPLVQTPPGSSEVVPVISSMYQLHKPPSDGPPRSNHSAQDAVDNLLLLSKAKSVSSEREASPSNSCQDSTDTESNAEEQRSGLIYLTNHINPHARNGLALKEEQRAYEVLRAASENSQDAFRVVSTSGEQLKVYKCEHCRVLFLDHVMYTIHMGCHGCHGFRDPFECNMCGYHSQDRYEFSSHITRGEHRYHLS
As for B1, the binding result is given as “binds”.
